± gives the standard deviation of the averaged measurements. Values are relative to the signal before dosing, not to a vehicle control; the signal also falls without drug.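 Fibroblast labels denote human fibroblasts, mainly primary ones from uterus (C12385, HUF), lung (H6013), bone (Hs27A), adrenal (HADF) and skin (WS1), plus mammary HMF and breast cancer-associated Hs343T. Cancer cells are basal-like or mesenchymal-like triple-negative breast cancer lines. A hit is a response shift exceeding 3x replicate standard deviation. The tissue of the other fibroblasts is not given here.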
System: MDAMB436
Assay: relative JC-1 red fluorescence (viability) vs pre-drug, coculture with fibroblast (fraction); higher = more viable cancer cells
Method: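 JC-1 labelled TNBC cells cocultured 1:1 (1,500 cells each) with CellTrace Violet stained primary or stromal fibroblasts in 384-well plates in FluoroBrite medium, treated with one of 42 anticancer drugs at 0.1, 1, 10 or 100 uM. JC-1 red fluorescence (mitochondrial integrity in cancer cells only) was read by plate reader every 8 h for 72 h. Values are normalised to each well's pre-drug value. The stock of one drug was tenfold lower, so its dose labels may be too high.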

CC[C@]1(O)C[C@H]2CN(CCc3c([nH]c4ccccc34)[C@@](C(=O)OC)(c3cc4c(cc3OC)N(C=O)[C@H]3[C@@](O)(C(=O)OC)[C@H](OC(C)=O)[C@]5(CC)C=CCN6CC[C@]43[C@@H]65)C2)C1 [Vincristine]
relative JC-1 red fluorescence
Settings | 8 h | 16 h | 24 h | 32 h | 40 h | 48 h | 56 h | 64 h | 72 h
0.1 µM, coculture fibroblast: C12385 | 0.7719 ± 0.0069 | 0.724 ± 0.014 | 0.725 ± 0.022 | 0.66 ± 0.032 | 0.638 ± 0.027 | 0.63 ± 0.024 | 0.63 ± 0.034 | 0.63 ± 0.028 | 0.651 ± 0.025
0.1 µM, coculture fibroblast: H6013 | 0.7927 ± 0.0059 | 0.767 ± 0.0078 | 0.76 ± 0.026 | 0.768 ± 0.036 | 0.777 ± 0.042 | 0.826 ± 0.037 | 0.824 ± 0.049 | 0.846 ± 0.054 | 0.842 ± 0.05
0.1 µM, coculture fibroblast: H6019 | 0.828 ± 0.093 | 0.781 ± 0.11 | 0.774 ± 0.14 | 0.738 ± 0.16 | 0.723 ± 0.16 | 0.709 ± 0.14 | 0.706 ± 0.13 | 0.687 ± 0.096 | 0.674 ± 0.079
0.1 µM, coculture fibroblast: H6076 | 0.711 ± 0.029 | 0.686 ± 0.0079 | 0.7282 ± 0.0022 | 0.738 ± 0.016 | 0.78 ± 0.023 | 0.794 ± 0.027 | 0.868 ± 0.041 | 0.897 ± 0.04 | 0.928 ± 0.047
0.1 µM, coculture fibroblast: H6231 | 0.674 ± 0.0084 | 0.662 ± 0.02 | 0.714 ± 0.04 | 0.651 ± 0.049 | 0.676 ± 0.051 | 0.653 ± 0.052 | 0.669 ± 0.064 | 0.671 ± 0.064 | 0.675 ± 0.073
0.1 µM, coculture fibroblast: HADF | 0.781 ± 0.009 | 0.761 ± 0.01 | 0.75 ± 0.01 | 0.732 ± 0.0039 | 0.743 ± 0.013 | 0.7804 ± 0.0026 | 0.73645 ± 0.00012 | 0.7461 ± 0.0065 | 0.732 ± 0.013
0.1 µM, coculture fibroblast: HCFa | 0.8 ± 0.038 | 0.782 ± 0.053 | 0.783 ± 0.089 | 0.779 ± 0.09 | 0.774 ± 0.1 | 0.802 ± 0.12 | 0.76 ± 0.12 | 0.761 ± 0.12 | 0.715 ± 0.13
0.1 µM, coculture fibroblast: HCPF | 0.769 ± 0.06 | 0.752 ± 0.059 | 0.767 ± 0.034 | 0.726 ± 0.035 | 0.741 ± 0.018 | 0.7202 ± 0.0049 | 0.718 ± 0.021 | 0.72 ± 0.028 | 0.727 ± 0.026
0.1 µM, coculture fibroblast: HHSteC | 0.841 ± 0.037 | 0.867 ± 0.081 | 0.879 ± 0.1 | 0.878 ± 0.12 | 0.799 ± 0.0005 | 0.861 ± 0.058 | 0.7863 ± 0.0032 | 0.814 ± 0.058 | 0.86 ± 0.16
0.1 µM, coculture fibroblast: HMF | 0.718 ± 0.052 | 0.703 ± 0.059 | 0.717 ± 0.046 | 0.689 ± 0.046 | 0.711 ± 0.037 | 0.707 ± 0.036 | 0.75 ± 0.019 | 0.754 ± 0.024 | 0.766 ± 0.026
0.1 µM, coculture fibroblast: HPFa | 0.87 ± 0.034 | 0.875 ± 0.081 | 0.883 ± 0.1 | 0.883 ± 0.12 | 0.895 ± 0.13 | 0.826 ± 0.025 | 0.886 ± 0.14 | 0.887 ± 0.14 | 0.851 ± 0.15
0.1 µM, coculture fibroblast: HUF | 0.8088 ± 0.0061 | 0.7552 ± 0.002 | 0.7438 ± 0.0029 | 0.6849 ± 0.0019 | 0.6479 ± 0.0064 | 0.64 ± 0.012 | 0.625 ± 0.016 | 0.627 ± 0.011 | 0.63 ± 0.01
0.1 µM, coculture fibroblast: Hs5 | 0.759 ± 0.034 | 0.762 ± 0.053 | 0.805 ± 0.074 | 0.791 ± 0.074 | 0.819 ± 0.071 | 0.806 ± 0.068 | 0.876 ± 0.065 | 0.871 ± 0.057 | 0.898 ± 0.052
0.1 µM, coculture fibroblast: Hs27A | 0.7988 ± 0.003 | 0.779 ± 0.02 | 0.789 ± 0.042 | 0.797 ± 0.041 | 0.82 ± 0.042 | 0.91 ± 0.048 | 0.858 ± 0.046 | 0.88 ± 0.055 | 0.839 ± 0.049
0.1 µM, coculture fibroblast: Hs343T | 0.707 ± 0.029 | 0.68 ± 0.013 | 0.67494 ± 5.7e-06 | 0.65881 ± 0.00035 | 0.674 ± 0.0056 | 0.66008 ± 0.00043 | 0.69 ± 0.0085 | 0.6967 ± 0.0056 | 0.705 ± 0.018
0.1 µM, coculture fibroblast: WS1 | 0.79194 ± 0.00043 | 0.7364 ± 0.0031 | 0.7254 ± 0.001 | 0.66202 ± 0.00058 | 0.6409 ± 0.0012 | 0.6208 ± 0.0013 | 0.6271 ± 0.0051 | 0.6219 ± 0.0037 | 0.6261 ± 0.002
1 µM, coculture fibroblast: C12385 | 0.7964 ± 0.0048 | 0.7104 ± 0.0041 | 0.6647 ± 0.0029 | 0.603 ± 0.002 | 0.558 ± 0.0062 | 0.542 ± 0.0057 | 0.523 ± 0.0086 | 0.501 ± 0.014 | 0.505 ± 0.018
1 µM, coculture fibroblast: H6013 | 0.857 ± 0.08 | 0.814 ± 0.14 | 0.778 ± 0.12 | 0.779 ± 0.13 | 0.764 ± 0.11 | 0.783 ± 0.099 | 0.77 ± 0.08 | 0.774 ± 0.06 | 0.751 ± 0.05
1 µM, coculture fibroblast: H6019 | 0.7743 ± 0.0062 | 0.69603 ± 0.00028 | 0.684 ± 0.013 | 0.6408 ± 0.0053 | 0.625 ± 0.0086 | 0.6365 ± 0.0046 | 0.632 ± 0.0073 | 0.634 ± 0.011 | 0.634 ± 0.012
1 µM, coculture fibroblast: H6076 | 0.794 ± 0.03 | 0.713 ± 0.017 | 0.703 ± 0.026 | 0.6788 ± 0.0031 | 0.676 ± 0.0099 | 0.663 ± 0.022 | 0.681 ± 0.04 | 0.697 ± 0.043 | 0.716 ± 0.046
1 µM, coculture fibroblast: H6231 | 0.816 ± 0.015 | 0.751 ± 0.022 | 0.696 ± 0.018 | 0.662 ± 0.009 | 0.627 ± 0.01 | 0.595 ± 0.016 | 0.577 ± 0.01 | 0.553 ± 0.0057 | 0.533 ± 0.0072
1 µM, coculture fibroblast: HADF | 0.87 ± 0.029 | 0.827 ± 0.071 | 0.82 ± 0.041 | 0.81 ± 0.023 | 0.797 ± 0.024 | 0.81 ± 0.026 | 0.773 ± 0.033 | 0.773 ± 0.041 | 0.744 ± 0.051
1 µM, coculture fibroblast: HCFa | 0.7895 ± 0.0042 | 0.718 ± 0.016 | 0.679 ± 0.016 | 0.64 ± 0.018 | 0.614 ± 0.021 | 0.62 ± 0.022 | 0.571 ± 0.021 | 0.558 ± 0.021 | 0.51 ± 0.018
1 µM, coculture fibroblast: HCPF | 0.807 ± 0.014 | 0.735 ± 0.022 | 0.708 ± 0.041 | 0.67 ± 0.04 | 0.657 ± 0.049 | 0.631 ± 0.058 | 0.608 ± 0.061 | 0.598 ± 0.061 | 0.584 ± 0.069
1 µM, coculture fibroblast: HHSteC | 0.8632 ± 0.0026 | 0.841 ± 0.029 | 0.782 ± 0.02 | 0.763 ± 0.03 | 0.753 ± 0.038 | 0.772 ± 0.04 | 0.72 ± 0.049 | 0.712 ± 0.045 | 0.664 ± 0.058
1 µM, coculture fibroblast: HMF | 0.792 ± 0.023 | 0.693 ± 0.015 | 0.64009 ± 0.00053 | 0.612 ± 0.0088 | 0.591 ± 0.0044 | 0.562 ± 0.011 | 0.56 ± 0.017 | 0.546 ± 0.01 | 0.539 ± 0.017
1 µM, coculture fibroblast: HPFa | 0.8663 ± 0.007 | 0.825 ± 0.014 | 0.77 ± 0.022 | 0.748 ± 0.025 | 0.736 ± 0.03 | 0.762 ± 0.044 | 0.7 ± 0.046 | 0.7 ± 0.046 | 0.647 ± 0.038
1 µM, coculture fibroblast: HUF | 0.883 ± 0.034 | 0.79 ± 0.046 | 0.781 ± 0.043 | 0.72 ± 0.038 | 0.666 ± 0.043 | 0.637 ± 0.037 | 0.608 ± 0.035 | 0.596 ± 0.02 | 0.592 ± 0.022
1 µM, coculture fibroblast: Hs5 | 0.82 ± 0.027 | 0.754 ± 0.0078 | 0.7255 ± 0.0023 | 0.669 ± 0.011 | 0.661 ± 0.015 | 0.622 ± 0.018 | 0.643 ± 0.04 | 0.622 ± 0.038 | 0.624 ± 0.054
1 µM, coculture fibroblast: Hs27A | 0.838 ± 0.016 | 0.801 ± 0.01 | 0.7753 ± 0.0023 | 0.7416 ± 0.0038 | 0.7299 ± 0.006 | 0.733 ± 0.03 | 0.701 ± 0.025 | 0.688 ± 0.029 | 0.641 ± 0.03
1 µM, coculture fibroblast: Hs343T | 0.8 ± 0.029 | 0.713 ± 0.051 | 0.655 ± 0.058 | 0.632 ± 0.052 | 0.601 ± 0.058 | 0.569 ± 0.066 | 0.56 ± 0.064 | 0.538 ± 0.055 | 0.526 ± 0.051
1 µM, coculture fibroblast: WS1 | 0.804 ± 0.017 | 0.716 ± 0.026 | 0.6554 ± 0.0012 | 0.5861 ± 0.0013 | 0.5396 ± 0.0046 | 0.522 ± 0.0081 | 0.494 ± 0.011 | 0.469 ± 0.026 | 0.459 ± 0.035
